Measurements from US7863242B2, “Compositions for down-regulation of CCR5 expression and methods of use thereof” (priority 2003, dated 2011).
At least one compound was matched to its structure with a doubt left.

How the values were obtained:
RANTES = assay: Extracellular RANTES level in PBMC culture supernatants (ELISA); format: cell-based, human; details: day 10, four donors
CCR5 [1] = assay: CCR5 mRNA expression in peripheral blood of HIV infected volunteers given Rapamycin (proof of concept trial); format: in vivo, human; details: 2 mg/day after 6 mg loading dose, 28 days; three volunteers, by day 28
CCR5 mRNA = assay: Semiquantitative RT-PCR of CCR5 transcripts in PBMC cultures; format: cell-based, human; details: PBMCs cultured with IL-2 and drug for 7 days
HIV-1 ADA = HIV-1 ADA DNA content in PBMCs 24 h after infection (DNA PCR, phosphoimager); format: cell-based; details: 100 nM RAPA
CCR5 [2] = assay: CCR5 surface expression on CD4 and CD8 T lymphocytes in IL-2 cultured PBMCs (flow cytometry, mAb 182); format: cell-based, human; details: RAPA at 0.1 nM
Method: CCR5 surface expression was measured on PBMCs cultured in the presence of IL-2 for 7-10 days.

HIV-1 IIIb [3] = assay: HIV-1 IIIb replication in PBMCs (p24 assay); format: cell-based; details: RAPA 0.01, 0.1 and 1 nM
Method: Infectivity Assays: The following viruses were used in infection experiments: HIV-1 IIIb, HIV-1 ADA, HIV-1 BaL, HIV-1 JRFL, HIV-1 JRCSF, and HIV-1 SF162. HIV-1 IIIb is a T cell line-adapted lab strain that uses CXCR4 for entry into cells, whereas the rest are isolates that use CCR5. Viruses were obtained from the National Institutes of Health AIDS Research and Reference Reagent Program.
For infection of PBMCs, fresh donor PBMCs were cultured for 7 days in medium containing IL-2. On day 7, cells were exposed to the virus for 3 h. Nonadsorbed virus was removed by washing cells with PBS three times. Infected cells were cultured in IL-2 medium. Infection of MDMs was carried out as described before (Perno, 1993). Unless otherwise indicated, PBMCs were infected by using an moi of 0.001, and MDM were infected by using an moi of 0.002. Virus growth was monitored in culture supernatants by measuring p24 antigen levels by ELISA (NEN) or by measuring viral RT activity in an RT assay (Willey, 1988).
Antiviral Activity of RAPA in PBMCs: The antiviral activity of RAPA was assayed in PBMCs that had been cultured in the presence of RAPA for 7 days before infection. […] Infected cells were cultured in the presence of RAPA (same concentration as during pretreatment) for 7 additional days, during which time virus replication and cell viability were measured.

HIV-1 IIIb [4] = assay: HIV-1 IIIb DNA content in PBMCs 24 h after infection (DNA PCR, phosphoimager); format: cell-based; details: 100 nM RAPA
[5] = system: MIP-1α and MIP-1β transcripts; assay: Semiquantitative RT-PCR of MIP-1α and MIP-1β transcripts in PBMC cultures; format: cell-based, human; details: RNA of days 3, 7 and 10 of culture

CO[C@H]1C[C@@H]2CC[C@@H](C)[C@@](O)(O2)C(=O)C(=O)N2CCCC[C@H]2C(=O)O[C@H]([C@H](C)C[C@@H]2CC[C@@H](O)[C@H](OC)C2)CC(=O)[C@H](C)/C=C(\C)[C@@H](O)[C@@H](OC)C(=O)[C@H](C)C[C@H](C)/C=C/C=C/C=C/1C [RAPA, rapamycin]
levels of RANTES in the presence of RAPA (RANTES): increased in two donors while remaining unchanged or even decreasing in the others | CCR5 (RNA) expression versus baseline in HIV infected volunteers (CCR5 [1]): decrease in CCR5 expression | CCR5 transcripts (semiquantitative RT-PCR) (CCR5 mRNA): decreased amounts of CCR5 transcripts | HIV-1 ADA DNA content, treated versus untreated cells (HIV-1 ADA): three times lower | CCR5 protein expression on CD4 lymphocytes (CCR5 [2]): down-regulated CCR5 protein expression on CD4 lymphocytes from some but not all donors | antiviral activity against HIV-1 IIIb at low concentrations (HIV-1 IIIb [3]): antiviral activity was seen against R5 strains but not against HIV-1 IIIb | HIV-1 IIIb DNA content, treated versus untreated cells (HIV-1 IIIb [4]): the same | MIP-1α and MIP-1β transcript amount, treated versus untreated [5]: no differences in transcript amount
